Test results: the supplement of paper PMC10849652
The other results are listed elsewhere or left out.

Protein sequences, listed by entry. Tags and fused reporters are not part of them. Lines headed by an entry give the natural chain unless they say otherwise; changes in a name come on top.
UniProt Q9NP97, whole entry, looked up: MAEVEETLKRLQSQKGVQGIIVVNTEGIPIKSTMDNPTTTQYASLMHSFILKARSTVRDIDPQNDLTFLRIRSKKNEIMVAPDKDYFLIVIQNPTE
UniProt O75061: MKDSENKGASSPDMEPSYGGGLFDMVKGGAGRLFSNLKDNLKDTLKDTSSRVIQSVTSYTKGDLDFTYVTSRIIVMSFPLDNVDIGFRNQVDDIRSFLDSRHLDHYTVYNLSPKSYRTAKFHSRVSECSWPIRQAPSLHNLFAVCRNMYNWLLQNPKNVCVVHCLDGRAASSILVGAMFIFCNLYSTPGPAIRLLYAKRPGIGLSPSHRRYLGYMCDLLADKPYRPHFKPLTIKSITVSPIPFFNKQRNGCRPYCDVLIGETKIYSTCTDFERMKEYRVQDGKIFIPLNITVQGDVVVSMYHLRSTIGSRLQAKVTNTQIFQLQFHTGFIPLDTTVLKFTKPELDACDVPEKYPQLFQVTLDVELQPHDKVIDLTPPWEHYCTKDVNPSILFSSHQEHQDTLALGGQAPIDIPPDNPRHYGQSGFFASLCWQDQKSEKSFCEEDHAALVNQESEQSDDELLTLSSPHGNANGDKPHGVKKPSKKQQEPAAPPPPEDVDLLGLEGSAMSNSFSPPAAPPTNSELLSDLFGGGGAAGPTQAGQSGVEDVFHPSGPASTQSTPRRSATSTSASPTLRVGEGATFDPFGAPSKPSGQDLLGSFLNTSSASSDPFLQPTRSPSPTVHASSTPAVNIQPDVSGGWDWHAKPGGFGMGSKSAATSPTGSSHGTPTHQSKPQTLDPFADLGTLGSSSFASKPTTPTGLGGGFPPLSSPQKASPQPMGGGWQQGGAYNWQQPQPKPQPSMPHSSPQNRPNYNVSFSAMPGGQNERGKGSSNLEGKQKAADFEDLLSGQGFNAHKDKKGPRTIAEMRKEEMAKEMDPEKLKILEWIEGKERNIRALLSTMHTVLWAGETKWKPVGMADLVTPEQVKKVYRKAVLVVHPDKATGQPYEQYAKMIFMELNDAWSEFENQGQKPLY
UniProt O00559: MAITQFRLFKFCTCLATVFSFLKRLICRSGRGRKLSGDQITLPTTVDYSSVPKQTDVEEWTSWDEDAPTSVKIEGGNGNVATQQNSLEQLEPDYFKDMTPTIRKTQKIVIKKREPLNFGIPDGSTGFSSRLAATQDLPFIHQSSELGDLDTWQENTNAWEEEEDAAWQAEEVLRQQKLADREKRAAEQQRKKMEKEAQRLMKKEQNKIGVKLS
UniProt O95620: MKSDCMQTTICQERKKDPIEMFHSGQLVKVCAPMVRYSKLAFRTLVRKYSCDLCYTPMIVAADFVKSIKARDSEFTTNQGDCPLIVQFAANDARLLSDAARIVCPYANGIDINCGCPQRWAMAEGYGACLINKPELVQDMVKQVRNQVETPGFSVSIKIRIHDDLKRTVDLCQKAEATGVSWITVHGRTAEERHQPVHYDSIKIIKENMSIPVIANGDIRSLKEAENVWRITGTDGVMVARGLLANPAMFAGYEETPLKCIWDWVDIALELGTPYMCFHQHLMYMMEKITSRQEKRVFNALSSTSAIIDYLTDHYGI
UniProt Q01658: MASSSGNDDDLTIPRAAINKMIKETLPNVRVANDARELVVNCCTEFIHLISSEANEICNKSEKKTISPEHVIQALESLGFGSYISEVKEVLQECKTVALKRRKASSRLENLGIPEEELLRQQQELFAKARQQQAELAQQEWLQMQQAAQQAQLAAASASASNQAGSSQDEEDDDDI
UniProt Q6ZPD9: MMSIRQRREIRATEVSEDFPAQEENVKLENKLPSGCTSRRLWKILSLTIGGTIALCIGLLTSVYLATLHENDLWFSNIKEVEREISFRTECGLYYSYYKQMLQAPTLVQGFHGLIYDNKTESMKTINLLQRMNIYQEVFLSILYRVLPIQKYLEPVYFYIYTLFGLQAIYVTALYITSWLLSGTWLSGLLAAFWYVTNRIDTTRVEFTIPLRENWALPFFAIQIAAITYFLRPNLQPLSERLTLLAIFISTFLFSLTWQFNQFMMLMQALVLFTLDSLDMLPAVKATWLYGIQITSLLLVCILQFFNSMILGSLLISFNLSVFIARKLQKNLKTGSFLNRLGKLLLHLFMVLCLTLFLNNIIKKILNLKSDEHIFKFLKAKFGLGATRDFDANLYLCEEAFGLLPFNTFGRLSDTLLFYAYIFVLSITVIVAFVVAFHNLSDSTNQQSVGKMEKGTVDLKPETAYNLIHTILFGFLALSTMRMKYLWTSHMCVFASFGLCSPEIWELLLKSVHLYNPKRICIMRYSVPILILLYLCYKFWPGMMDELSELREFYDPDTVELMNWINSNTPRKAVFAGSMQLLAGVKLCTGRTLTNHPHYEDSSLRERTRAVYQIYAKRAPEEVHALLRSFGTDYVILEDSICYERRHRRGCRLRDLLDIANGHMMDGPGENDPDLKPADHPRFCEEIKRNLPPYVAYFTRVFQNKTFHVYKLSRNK
UniProt Q9BVJ7: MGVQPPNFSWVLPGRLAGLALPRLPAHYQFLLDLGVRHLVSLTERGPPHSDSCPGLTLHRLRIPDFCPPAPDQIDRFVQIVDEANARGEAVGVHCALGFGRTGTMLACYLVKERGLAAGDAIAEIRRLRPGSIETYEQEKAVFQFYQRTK
UniProt P60981: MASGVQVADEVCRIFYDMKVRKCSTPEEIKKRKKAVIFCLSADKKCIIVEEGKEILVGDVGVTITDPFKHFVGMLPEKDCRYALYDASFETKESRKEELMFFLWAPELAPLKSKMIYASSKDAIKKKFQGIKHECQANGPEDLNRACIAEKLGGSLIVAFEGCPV
UniProt Q96DC8: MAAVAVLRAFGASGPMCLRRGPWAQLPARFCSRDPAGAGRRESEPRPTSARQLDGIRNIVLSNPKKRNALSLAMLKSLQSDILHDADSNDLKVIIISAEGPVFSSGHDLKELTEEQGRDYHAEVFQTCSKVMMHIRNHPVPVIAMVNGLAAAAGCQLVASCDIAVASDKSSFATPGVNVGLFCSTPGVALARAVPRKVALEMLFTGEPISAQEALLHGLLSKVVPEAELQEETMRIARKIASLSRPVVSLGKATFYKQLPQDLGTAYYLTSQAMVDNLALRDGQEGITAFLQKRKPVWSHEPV
UniProt Q9UNI6, whole entry, looked up: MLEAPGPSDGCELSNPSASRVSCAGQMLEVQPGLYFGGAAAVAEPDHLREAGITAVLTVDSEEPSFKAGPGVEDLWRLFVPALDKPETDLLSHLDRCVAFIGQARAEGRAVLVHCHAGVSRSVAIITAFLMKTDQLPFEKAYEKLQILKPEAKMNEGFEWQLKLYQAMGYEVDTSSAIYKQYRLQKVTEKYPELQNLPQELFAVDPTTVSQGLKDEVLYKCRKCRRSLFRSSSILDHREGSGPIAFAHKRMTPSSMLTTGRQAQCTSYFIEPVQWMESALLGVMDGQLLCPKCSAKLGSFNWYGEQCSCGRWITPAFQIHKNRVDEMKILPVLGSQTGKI
UniProt Q9H8V3: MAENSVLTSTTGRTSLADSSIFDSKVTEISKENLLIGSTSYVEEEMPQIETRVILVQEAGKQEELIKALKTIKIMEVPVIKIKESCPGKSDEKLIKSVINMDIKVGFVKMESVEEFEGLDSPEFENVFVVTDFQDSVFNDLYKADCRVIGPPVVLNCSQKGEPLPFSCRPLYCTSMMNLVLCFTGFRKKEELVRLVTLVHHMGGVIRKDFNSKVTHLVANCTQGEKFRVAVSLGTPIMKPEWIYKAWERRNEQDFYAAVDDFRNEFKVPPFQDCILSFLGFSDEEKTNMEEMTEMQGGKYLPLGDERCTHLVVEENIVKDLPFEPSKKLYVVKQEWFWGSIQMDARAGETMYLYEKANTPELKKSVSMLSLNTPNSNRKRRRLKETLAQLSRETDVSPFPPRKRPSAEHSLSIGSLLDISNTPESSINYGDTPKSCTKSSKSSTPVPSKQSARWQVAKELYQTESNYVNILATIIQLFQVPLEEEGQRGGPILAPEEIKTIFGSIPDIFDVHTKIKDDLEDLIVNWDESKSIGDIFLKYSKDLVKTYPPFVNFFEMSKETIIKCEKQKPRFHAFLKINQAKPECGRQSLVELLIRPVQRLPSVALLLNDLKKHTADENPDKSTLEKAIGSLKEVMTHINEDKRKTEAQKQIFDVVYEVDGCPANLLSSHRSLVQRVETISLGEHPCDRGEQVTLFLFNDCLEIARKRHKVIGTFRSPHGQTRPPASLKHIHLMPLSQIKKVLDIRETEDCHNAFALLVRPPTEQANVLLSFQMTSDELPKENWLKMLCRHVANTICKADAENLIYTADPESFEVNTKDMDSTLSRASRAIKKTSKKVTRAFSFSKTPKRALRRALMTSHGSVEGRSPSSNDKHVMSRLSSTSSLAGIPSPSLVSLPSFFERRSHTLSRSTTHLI
UniProt Q9P2X0: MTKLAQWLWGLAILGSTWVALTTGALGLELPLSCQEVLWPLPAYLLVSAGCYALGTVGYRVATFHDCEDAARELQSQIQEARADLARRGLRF
UniProt O00429, whole entry, looked up: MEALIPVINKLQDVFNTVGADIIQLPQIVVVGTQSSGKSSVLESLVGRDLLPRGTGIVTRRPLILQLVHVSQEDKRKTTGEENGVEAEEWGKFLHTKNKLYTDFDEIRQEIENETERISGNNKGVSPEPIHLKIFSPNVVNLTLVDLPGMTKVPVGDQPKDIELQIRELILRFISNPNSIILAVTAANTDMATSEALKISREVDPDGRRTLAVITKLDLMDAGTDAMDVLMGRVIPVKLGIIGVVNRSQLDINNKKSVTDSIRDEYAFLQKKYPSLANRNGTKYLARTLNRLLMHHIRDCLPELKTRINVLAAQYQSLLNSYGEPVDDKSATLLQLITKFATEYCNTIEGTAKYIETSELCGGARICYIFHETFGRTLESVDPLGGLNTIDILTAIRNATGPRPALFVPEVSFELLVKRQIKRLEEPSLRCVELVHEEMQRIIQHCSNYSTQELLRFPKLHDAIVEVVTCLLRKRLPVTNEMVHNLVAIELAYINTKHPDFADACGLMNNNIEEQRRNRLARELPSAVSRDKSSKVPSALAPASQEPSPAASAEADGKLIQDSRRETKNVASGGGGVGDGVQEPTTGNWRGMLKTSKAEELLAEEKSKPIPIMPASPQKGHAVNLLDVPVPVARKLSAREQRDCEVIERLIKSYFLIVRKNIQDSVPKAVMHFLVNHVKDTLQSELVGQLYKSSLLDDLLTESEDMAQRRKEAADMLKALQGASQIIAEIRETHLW
UniProt Q9BTV6: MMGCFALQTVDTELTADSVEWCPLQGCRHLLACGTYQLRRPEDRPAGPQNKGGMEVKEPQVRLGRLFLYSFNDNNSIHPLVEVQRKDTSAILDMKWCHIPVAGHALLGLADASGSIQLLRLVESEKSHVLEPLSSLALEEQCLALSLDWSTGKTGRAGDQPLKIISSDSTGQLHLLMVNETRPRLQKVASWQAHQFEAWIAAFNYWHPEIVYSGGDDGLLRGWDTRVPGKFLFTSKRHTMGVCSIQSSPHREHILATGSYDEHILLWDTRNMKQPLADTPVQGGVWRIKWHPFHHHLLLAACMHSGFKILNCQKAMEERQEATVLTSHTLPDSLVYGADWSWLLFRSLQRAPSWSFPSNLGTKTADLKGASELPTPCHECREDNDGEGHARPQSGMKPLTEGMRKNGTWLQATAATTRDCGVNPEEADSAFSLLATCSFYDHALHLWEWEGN
UniProt O00115: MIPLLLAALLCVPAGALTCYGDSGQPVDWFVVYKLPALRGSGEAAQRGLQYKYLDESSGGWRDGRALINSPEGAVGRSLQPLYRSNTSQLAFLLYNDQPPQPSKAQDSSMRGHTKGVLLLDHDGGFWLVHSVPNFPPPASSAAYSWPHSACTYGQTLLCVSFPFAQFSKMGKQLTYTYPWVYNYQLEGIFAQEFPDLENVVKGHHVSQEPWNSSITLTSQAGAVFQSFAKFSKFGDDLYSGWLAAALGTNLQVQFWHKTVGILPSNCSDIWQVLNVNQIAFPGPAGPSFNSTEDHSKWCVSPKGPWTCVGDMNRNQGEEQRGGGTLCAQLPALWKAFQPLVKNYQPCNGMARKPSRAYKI
UniProt O77932: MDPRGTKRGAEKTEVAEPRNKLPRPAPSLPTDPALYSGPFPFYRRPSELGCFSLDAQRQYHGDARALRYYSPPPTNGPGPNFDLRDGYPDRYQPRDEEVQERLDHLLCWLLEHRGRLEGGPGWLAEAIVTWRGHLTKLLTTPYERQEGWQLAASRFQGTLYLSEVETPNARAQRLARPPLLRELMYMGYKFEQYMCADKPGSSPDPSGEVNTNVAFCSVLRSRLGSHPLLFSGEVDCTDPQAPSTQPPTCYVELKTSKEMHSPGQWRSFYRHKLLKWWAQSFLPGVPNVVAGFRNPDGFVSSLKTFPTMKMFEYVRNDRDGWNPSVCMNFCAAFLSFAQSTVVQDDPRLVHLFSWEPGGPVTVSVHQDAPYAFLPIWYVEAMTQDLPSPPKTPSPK
UniProt O60762: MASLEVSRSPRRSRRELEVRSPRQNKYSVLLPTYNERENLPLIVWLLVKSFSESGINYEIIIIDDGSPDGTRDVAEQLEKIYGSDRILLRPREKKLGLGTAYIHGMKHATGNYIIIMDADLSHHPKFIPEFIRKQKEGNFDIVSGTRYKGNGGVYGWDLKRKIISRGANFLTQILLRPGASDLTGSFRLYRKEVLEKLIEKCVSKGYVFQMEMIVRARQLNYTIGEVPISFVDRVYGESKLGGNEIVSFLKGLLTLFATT

Compound: c1cn2cc(-c3ccc4cn[nH]c4c3)nc(Nc3ccc(N4CCOCC4)cc3)c2n1 [entospletinib]
Experiment: log2 fold change, soluble protein after heating vs DMSO (PISA); higher = thermal stabilisation; K562 cells, 10 uM, 30 min; active = over 0.2 and 3.5 SD of the protein, either way, in both replicates (recomputed)
Outline: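 Aliquots of K562 cells (2×10^6 cells/mL) treated with 10 μM compound for 30 min were heated for 3 min over 48°C-58°C. After pooling and extraction in PBS with 0.5% NP-40 at 4°C, soluble protein from a 21,000xg, 90 min spin was quantified by TMTpro 16plex LC-MS/MS with channel sums equalised. Thermal stability is expressed against control samples, from duplicates, as a log2 fold change.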

Row | Target | log2 fold change
1 | DYNLRB1 (UniProt Q9NP97) | inactive: 0.02
2 | DPP9 isoform 2 (UniProt Q86TI2) | inactive: -0.014
3 | DNAJC6 isoform 2 (UniProt O75061) | inactive: 0.041
4 | EBAG9 isoform 2 (UniProt O00559) | inactive: -0.107
5 | DUS4L (UniProt O95620) | inactive: -0.001
6 | DYM (UniProt Q7RTS9) | inactive: 0.2
7 | ECE1 (UniProt P42892) | inactive: -0.045
8 | DR1 (UniProt Q01658) | inactive: -0.081
9 | DPY19L3 (UniProt Q6ZPD9) | inactive: 0.09
10 | DUSP23 (UniProt Q9BVJ7) | inactive: 0.046
11 | DSTYK (UniProt Q6XUX3) | inactive: -0.105
12 | DSTN (UniProt P60981) | inactive: 0.037
13 | DPY19L1, A0A1B0GW05 | inactive: -0.037
14 | ECHDC3 (UniProt Q96DC8) | inactive: -0.081
15 | DUSP12 (UniProt Q9UNI6) | inactive: 0.071
16 | EARS2 isoform 2 (UniProt Q5JPH6) | inactive: 0.068
17 | DNPEP (UniProt B9ZVU2) | inactive: 0.008

Row | Target | log2 fold change
18 | ECSIT (UniProt Q9BQ95) | inactive: 0.019
19 | EAPP (UniProt Q56P03) | inactive: -0.03
20 | DNAJC13 (UniProt O75165) | inactive: -0.078
21 | DPP8 (UniProt Q6V1X1) | active: -0.377
22 | ECT2 isoform 3 (UniProt Q9H8V3) | inactive: -0.167
23 | DOCK11, A0A0J9YW64 | inactive: 0.118
24 | DPM3 isoform 2 (UniProt Q9P2X0) | inactive: 0.013
25 | DNM1L isoform 6 (UniProt O00429) | inactive: -0.051
26 | DPH7 (UniProt Q9BTV6) | inactive: -0.011
27 | DNM1L isoform 2 (UniProt O00429) | inactive: -0.029
28 | DNASE2 (UniProt O00115) | inactive: 0.044
29 | DSC2 (UniProt Q02487) | inactive: 0.054
30 | DSG2 (UniProt Q14126) | inactive: 0.018
31 | DXO (UniProt O77932) | inactive: -0.145
32 | DOCK11 (UniProt Q5JSL3) | inactive: 0.034
33 | DNAJC12 (UniProt Q9UKB3) | inactive: -0.076
34 | DPM1 (UniProt O60762) | inactive: 0.104

2 entries picked at random from the list so far, as already listed:
Row | Target | log2 fold change
19 | EAPP (UniProt Q56P03) | inactive: -0.03
26 | DPH7 (UniProt Q9BTV6) | inactive: -0.011
